These are yes or no findings as the source states them, for the method shown. Binding seen in cells or lysates may run through a third protein. Some entries that bind do so weakly or less than the wild type.
Molecular target: wild type aryl hydrocarbon receptor (mouse) (mouse) (UniProt P30561)
Assay: co-IP; hsp90 precipitated with the 3G3 anti-hsp90 antibody from a 1:1 mixture of in vitro synthesized [35S]ARNT and unlabeled AhR, incubated with 20 nM TCDD and 20 mM sodium molybdate for 1.5 h at room temperature; molybdate also in the washing buffer; [35S]ARNT bands quantitated

Sequences of proteins named here, by UniProt entry; tags and fusion partners are left off.
UniProt P30561: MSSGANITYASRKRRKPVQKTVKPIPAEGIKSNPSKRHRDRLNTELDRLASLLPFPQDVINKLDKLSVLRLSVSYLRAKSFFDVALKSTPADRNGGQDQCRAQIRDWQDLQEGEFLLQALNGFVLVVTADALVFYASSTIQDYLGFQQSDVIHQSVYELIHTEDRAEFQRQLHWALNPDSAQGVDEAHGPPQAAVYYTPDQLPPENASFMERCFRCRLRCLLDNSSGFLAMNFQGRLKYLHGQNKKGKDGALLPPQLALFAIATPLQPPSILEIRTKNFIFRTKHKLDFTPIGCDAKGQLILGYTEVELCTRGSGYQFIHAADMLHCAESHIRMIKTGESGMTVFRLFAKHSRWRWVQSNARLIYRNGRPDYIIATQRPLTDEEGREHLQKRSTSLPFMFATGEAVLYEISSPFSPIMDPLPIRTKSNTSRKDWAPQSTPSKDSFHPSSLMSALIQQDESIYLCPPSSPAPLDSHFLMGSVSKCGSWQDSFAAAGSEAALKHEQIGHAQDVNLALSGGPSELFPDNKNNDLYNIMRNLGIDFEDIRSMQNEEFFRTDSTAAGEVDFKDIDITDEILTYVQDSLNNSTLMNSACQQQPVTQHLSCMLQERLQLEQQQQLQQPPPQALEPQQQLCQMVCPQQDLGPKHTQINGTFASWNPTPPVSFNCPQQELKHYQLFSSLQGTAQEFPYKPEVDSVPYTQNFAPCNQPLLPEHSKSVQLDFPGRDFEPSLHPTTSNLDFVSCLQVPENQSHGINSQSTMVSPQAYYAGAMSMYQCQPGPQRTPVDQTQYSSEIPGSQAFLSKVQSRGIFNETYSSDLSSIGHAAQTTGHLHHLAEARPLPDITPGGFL
UniProt P53762: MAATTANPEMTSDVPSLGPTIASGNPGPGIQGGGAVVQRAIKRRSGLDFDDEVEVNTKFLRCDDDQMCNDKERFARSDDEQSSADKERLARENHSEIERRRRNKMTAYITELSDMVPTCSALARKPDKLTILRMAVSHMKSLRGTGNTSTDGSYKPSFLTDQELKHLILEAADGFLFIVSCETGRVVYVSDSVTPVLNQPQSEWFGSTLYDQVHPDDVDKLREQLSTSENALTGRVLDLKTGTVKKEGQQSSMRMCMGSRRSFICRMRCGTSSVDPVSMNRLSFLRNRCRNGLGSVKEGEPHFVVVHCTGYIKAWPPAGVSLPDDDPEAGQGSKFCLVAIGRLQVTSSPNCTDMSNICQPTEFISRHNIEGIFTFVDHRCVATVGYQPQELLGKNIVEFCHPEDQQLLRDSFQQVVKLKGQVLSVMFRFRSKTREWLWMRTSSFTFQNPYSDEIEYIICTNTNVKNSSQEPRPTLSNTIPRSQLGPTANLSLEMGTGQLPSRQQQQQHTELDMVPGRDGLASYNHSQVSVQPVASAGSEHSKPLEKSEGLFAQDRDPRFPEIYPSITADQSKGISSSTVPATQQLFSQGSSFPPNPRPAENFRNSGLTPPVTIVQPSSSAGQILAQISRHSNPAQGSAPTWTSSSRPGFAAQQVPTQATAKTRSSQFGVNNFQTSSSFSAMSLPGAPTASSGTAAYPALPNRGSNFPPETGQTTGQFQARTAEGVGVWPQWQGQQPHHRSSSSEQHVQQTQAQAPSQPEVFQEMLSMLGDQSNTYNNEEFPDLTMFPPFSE

binding: binds
Substance: aryl hydrocarbon receptor nuclear translocator (from UniProt P53762 1-791)
